From PubChem BioAssay AID204 (DTP/NCI, 2004)
The list shows only some results of the screen, not a fair sample: it gathers tests that were run many times, whatever their T/C, doses with no T/C, and many T/C values between a quarter and a half above the control. Further doses and runs are listed elsewhere. T/C gives the treated animals as a percentage of the vehicle group. Some entries give survivors of the animals treated and no T/C: the source holds a T/C of zero for them, seemingly a mark for toxic or unscored doses. Some doses without a T/C left all or most animals alive at the check, yet need not have been tolerated: survival well below the control is almost never listed, so the zero probably covers shortened survival too. Survivors were counted at the toxicity check, usually on the fifth day, unless a day is given; later deaths do not show. Schedule codes are those of the source, taken here to give the interval after Q, in days (D) or hours (H), and the number of doses after X. Some doses were run more than once; their values stand side by side, smallest first. Where survival is the endpoint, the PubChem record calls one and a half times the control and up active, and a quarter to a half above the control has no call in these data; cut-offs in other NCI protocols can differ.

Test system: BDF1 mice, P288 methotrexate-resistant leukemia, survival T/C
Experiment: NCI In Vivo Anticancer Drug Screen. Data for tumor model P288 Lymphocytic Leukemia resistant to methotrexate; NSC 740 (intraperitoneal) in B6D2F1 (BDF1) mice
Details: T/C endpoint: median survival time, higher T/C = longer survival
Method: The antitumor activity of compounds was measured in mice bearing transplantable tumors. Survival or tumor size were measured and the results are expressed as the measurement made in the treated group (T) divided by the measurement made in the vehicle treated control group (C). The tumor model used in this assay is P288 Lymphocytic Leukemia resistant to methotrexate; NSC 740 (intraperitoneal) in B6D2F1 (BDF1) mice

[1] = dose: 10.0 mg/kg/injection, schedule: Q01DX010 (ip), vehicle: saline
[2] = dose: 20.0 mg/kg/injection, schedule: Q01DX010 (ip), vehicle: saline
[3] = dose: 40.0 mg/kg/injection, schedule: Q01DX010 (ip), vehicle: saline
[4] = dose: 80.0 mg/kg/injection, schedule: Q01DX010 (ip), vehicle: saline
[5] = dose: 5.0 mg/kg/injection, schedule: Q01DX010 (ip), vehicle: saline
[6] = dose: 0.25 mg/kg/injection, schedule: Q01DX010 (ip), vehicle: saline
[7] = dose: 0.5 mg/kg/injection, schedule: Q01DX010 (ip), vehicle: saline
[8] = dose: 1.0 mg/kg/injection, schedule: Q01DX010 (ip), vehicle: saline
[9] = dose: 2.0 mg/kg/injection, schedule: Q01DX010 (ip), vehicle: saline
[10] = dose: 4.0 mg/kg/injection, schedule: Q01DX010 (ip), vehicle: saline
[11] = dose: 8.0 mg/kg/injection, schedule: Q01DX010 (ip), vehicle: saline
[12] = dose: 62.5 micrograms/kg/injection, schedule: Q01DX010 (ip), vehicle: saline
[13] = dose: 125.0 mg/kg/injection, schedule: Q01DX010 (ip), vehicle: saline
[14] = dose: 25.0 mg/kg/injection, schedule: Q01DX010 (ip), vehicle: saline
[15] = dose: 50.0 mg/kg/injection, schedule: Q01DX010 (ip), vehicle: saline

Cn1c(N)nc2nc[nH]c2c1=S
survivor count [1]: 6 of 6 | survivor count [2]: 6 of 6 | survivor count [3]: 6 of 6 | survivor count [4]: 6 of 6

CN(C)c1ccc(/C=C/c2ccnc3ccccc23)cc1
survivor count [5]: 6 of 6

C[N+](C)(C)c1ncnc2nc[nH]c12
survivor count (dose: 240.0 mg/kg/injection, schedule: Q01DX010 (ip), vehicle: saline): 2 of 6

CN(C)CC(=O)c1ccc(O)c(O)c1
T/C (dose: 675.0 mg/kg/injection, schedule: Q01DX010 (ip), vehicle: saline): 130 % of control

N#C[C@@H]1C2C=CC(CC2)[C@H]1C#N
survivor count [6]: 6 of 6 | survivor count [7]: 6 of 6 | survivor count [8]: 6 of 6 | survivor count [9]: 6 of 6

NC(=O)N(CCCl)N=O
survivor count [10]: 6 of 6

Nc1nc(=S)c2ncn(C3OC(CO)C(O)C3O)c2[nH]1 (stereo unspecified)
T/C [11]: 130 % of control | survivor count [11]: 6 of 6

CS(=O)(=O)OCCN(CCOS(C)(=O)=O)c1ccc(N=O)cc1
T/C [8]: 129 % of control | survivor count [9]: 4 of 6 and 6 of 6 | survivor count [10]: 5 of 6 | survivor count [11]: 1 of 6 | survivor count (dose: 16.0 mg/kg/injection, schedule: Q01DX010 (ip), vehicle: saline): 0 of 6

CC[C@]1(O)C[C@H]2CN(CCc3c([nH]c4ccccc34)[C@@](C(=O)OC)(c3cc4c(cc3OC)N(C=O)[C@H]3[C@@](O)(C(=O)OC)[C@H](OC(C)=O)[C@]5(CC)C=CCN6CC[C@]43[C@@H]65)C2)C1
T/C (dose: 0.06 mg/kg/injection, schedule: Q01DX010 (ip), vehicle: saline): 136 % of control | survivor count [6]: 6 of 6 | survivor count [7]: 6 of 6 | survivor count [5]: 2 of 6

Nc1ncnc2[nH]ncc12
T/C (dose: 1.5 mg/kg/injection, schedule: Q01DX010 (ip), vehicle: saline): 125 % of control

Clc1ncnc2nc[nH]c12
survivor count (dose: 7.5 mg/kg/injection, schedule: Q01DX010 (ip), vehicle: saline): 6 of 6 | survivor count (dose: 15.0 mg/kg/injection, schedule: Q01DX010 (ip), vehicle: saline): 6 of 6 | survivor count (dose: 30.0 mg/kg/injection, schedule: Q01DX010 (ip), vehicle: saline): 6 of 6 | survivor count (dose: 60.0 mg/kg/injection, schedule: Q01DX010 (ip), vehicle: saline): 6 of 6

Nc1nc(=S)c2[nH]cnc2[nH]1
T/C (dose: 5.0 mg/kg/injection, schedule: Q01DX010 (ip), vehicle: other): 137 % of control

O[C@H](CN1CC1)[C@@H](O)CN1CC1
T/C [12]: 145 % of control | survivor count [12]: 6 of 6 | T/C (dose: 125.0 micrograms/kg/injection, schedule: Q01DX010 (ip), vehicle: saline): 130 % of control | T/C (dose: 250.0 micrograms/kg/injection, schedule: Q01DX010 (ip), vehicle: saline): 136 % of control

O=c1[nH]cc(F)c(=O)[nH]1
T/C [5]: 131 % of control | T/C [1]: 125 and 140 % of control | T/C [2]: 133 % of control

CC1CCOS(=O)O1 (stereo unspecified)
survivor count [2]: 6 of 6 | survivor count [3]: 6 of 6 | survivor count [4]: 6 of 6

CC/C(=C(/CC)c1ccc(O)cc1)c1ccc(O)cc1
survivor count (dose: 25.0 mg/kg/injection, schedule: Q01DX010 (sc), vehicle: steroid suspending solution): 6 of 10

Cc1cc(N(CCCl)CCCl)ccc1N=Nc1ccccc1C(=O)O
T/C [2]: 131 % of control | survivor count [3]: 6 of 6

CCCSc1ncnc2nc[nH]c12
survivor count [13]: 5 of 6 | survivor count (dose: 250.0 mg/kg/injection, schedule: Q01DX010 (ip), vehicle: saline): 0 of 6

CCCNc1ncnc2[nH]ncc12
survivor count (dose: 3.13 mg/kg/injection, schedule: Q01DX010 (ip), vehicle: saline): 6 of 6 | survivor count (dose: 6.25 mg/kg/injection, schedule: Q01DX010 (ip), vehicle: saline): 0 of 6 and 4 of 6 | survivor count (dose: 12.5 mg/kg/injection, schedule: Q01DX010 (ip), vehicle: saline): 0 of 6 | survivor count [14]: 0 of 6

CC(CCC(C)OS(C)(=O)=O)OS(C)(=O)=O (stereo unspecified)
survivor count [9]: 6 of 6 | survivor count [10]: 6 of 6 | T/C (dose: 32.0 mg/kg/injection, schedule: Q01DX010 (ip), vehicle: saline): 127 % of control

Nc1nc(N)c2nc(CNc3ccc(C(=O)NC(CCC(=O)O)C(=O)O)cc3)cnc2n1 (stereo unspecified)
survivor count (dose: 0.1 mg/kg/injection, schedule: Q01DX010 (ip), vehicle: other): 0 of 6

CCOC(N)=O
survivor count [13]: 5 of 6

CN(N=O)C(=O)NC(C=O)C(O)C(O)C(O)CO (stereo unspecified)
T/C [15]: 130 % of control

CN(N=O)C(N)=O
T/C [5]: 130 % of control

N=[N+]=CC(=O)OCC(N)C(=O)O (stereo unspecified)
survivor count [14]: 6 of 6 | survivor count [15]: 1 of 6

CN(C)/N=N/c1nc[nH]c1C(N)=O
survivor count (dose: 400.0 mg/kg/injection, schedule: Q01DX010 (ip), vehicle: saline): 5 of 8

CCCCNc1ncnc2c1cnn2C
survivor count (dose: 15.6 mg/kg/injection, schedule: Q01DX010 (ip), vehicle: saline): 6 of 6 | survivor count (dose: 31.3 mg/kg/injection, schedule: Q01DX010 (ip), vehicle: saline): 6 of 6 | survivor count [13]: 4 of 6 and 5 of 6
